Some of these results come from one statement about several compounds together.
Tested on: MDCK-MDR1 epithelial cell line
Test: BBB permeability assay, MDCK-MDR1 cell line
Assay type: in vitro ADME, canine

SMILES | MDCK permeability
COc1ccc(/C=C2\C=C(CCN3CCOCC3)c3ccccc32)c2ccccc12 [Compound 10, 4-{2-[(1E)-2-[(4-methoxy-naphthalen-1-yl)methylidene]-1H-inden-3-yl]ethyl} morpholine] | < 1%
CCCCCn1cc(C(=O)c2ccc(C(=O)OC)c3ccccc23)c2ccccc21 [Compound 54, methyl 4-(1-pentyl-1H-indole-3-carbonyl) naphthalene-1-carboxylate] | < 1%

Source: patent US9656981B2, “Peripherally-acting cannabinoid receptor agonists for chronic pain” (The Regents of the University of California, priority 2012, dated 2017)
